Values of other authors in US11583508B2, “Use of mitoxantrone liposome for treating non-Hodgkin's lymphoma” (CSPC ZHONGQI PHARMACEUTICAL TECHNOLOGY (SHIJIAZHUANG) CO., …, priority 2018, dated 2023).
Read-outs that look alike come from different tables or passages of the source. For at least one compound, name, drawing or mass did not settle the structure. Some results were stated once for a whole list of compounds, not compound by compound.

System: relapsed/refractory PTCL (RR-PTCL)
Conditions: monotherapy, second-line

## C/C=C1\NC(=O)[C@H]2CSSCC/C=C/[C@H](CC(=O)N[C@H](C(C)C)C(=O)N2)OC(=O)[C@H](C(C)C)NC1=O [Romidepsin]
  Primary endpoint: (ORR, %): 26%
Listed as romidepsin
  Primary endpoint: (ORR, %): lower than 30%
